Experimental data published in PMC13199644, “Optimized Quantitative Bacterial Two-Hybrid (qB2H) for Protein–Protein Interaction Assessment” (Computational and Structural Biotechnology Journal, 2026).
No constants are given. Whether binding was seen depends on the method and setting. Some entries that bind do so weakly or less than the wild type.

The chains behind the UniProt entries cited, without tags or fusion partners. Residues count along the entry.
UniProt Q9NVP2, residues 1-156: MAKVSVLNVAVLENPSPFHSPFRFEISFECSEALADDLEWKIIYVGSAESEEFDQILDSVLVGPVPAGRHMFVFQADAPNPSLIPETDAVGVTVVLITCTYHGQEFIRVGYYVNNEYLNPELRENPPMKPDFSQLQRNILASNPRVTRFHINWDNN

Molecular target: cI_E34P fusion with the N-terminal domain of human ASF1B, ASF1BN (residues 1 to 156) (human) (UniProt Q9NVP2)
Experiment: two-hybrid; qB2H v4 interface mapping: single-mutant position libraries of ASF1BN with rpoA-ip3 or rpoA-HIRA in SB39, kanamycin selection, NGS before and after, enrichment normalized to wild type

binding: binds
Substance: rpoA-HIRA fusion (HIRA residues 442-472, C465S) (from UniProt P54198 442-472) (domain or fragment)
